In patent EP0845034B1, “PEPTIDE HAVING PRONOCICEPTIVE PROPERTIES” (Euroscreen S.A., priority 1995, dated 1997):
For at least one compound, name, drawing or mass did not settle the structure.

Test system: mice
Test: antagonism of nociceptin-induced stimulation of horizontal locomotor activity
Assay type: in vivo
Settings: increasing doses of D1 dopamine receptor antagonist pretreatment

Question: For `CN1CCc2cc(Cl)c(O)cc2[C@@H](c2ccccc2)C1` [SCH 23390], which “effect on nociceptin stimulation of locomotor activity” value is on record?
Answer: effective in antagonizing
